These results are taken from article PMC6534332.

Protein sequences, listed by entry. Tags and fused reporters are not part of them.
UniProt P26358: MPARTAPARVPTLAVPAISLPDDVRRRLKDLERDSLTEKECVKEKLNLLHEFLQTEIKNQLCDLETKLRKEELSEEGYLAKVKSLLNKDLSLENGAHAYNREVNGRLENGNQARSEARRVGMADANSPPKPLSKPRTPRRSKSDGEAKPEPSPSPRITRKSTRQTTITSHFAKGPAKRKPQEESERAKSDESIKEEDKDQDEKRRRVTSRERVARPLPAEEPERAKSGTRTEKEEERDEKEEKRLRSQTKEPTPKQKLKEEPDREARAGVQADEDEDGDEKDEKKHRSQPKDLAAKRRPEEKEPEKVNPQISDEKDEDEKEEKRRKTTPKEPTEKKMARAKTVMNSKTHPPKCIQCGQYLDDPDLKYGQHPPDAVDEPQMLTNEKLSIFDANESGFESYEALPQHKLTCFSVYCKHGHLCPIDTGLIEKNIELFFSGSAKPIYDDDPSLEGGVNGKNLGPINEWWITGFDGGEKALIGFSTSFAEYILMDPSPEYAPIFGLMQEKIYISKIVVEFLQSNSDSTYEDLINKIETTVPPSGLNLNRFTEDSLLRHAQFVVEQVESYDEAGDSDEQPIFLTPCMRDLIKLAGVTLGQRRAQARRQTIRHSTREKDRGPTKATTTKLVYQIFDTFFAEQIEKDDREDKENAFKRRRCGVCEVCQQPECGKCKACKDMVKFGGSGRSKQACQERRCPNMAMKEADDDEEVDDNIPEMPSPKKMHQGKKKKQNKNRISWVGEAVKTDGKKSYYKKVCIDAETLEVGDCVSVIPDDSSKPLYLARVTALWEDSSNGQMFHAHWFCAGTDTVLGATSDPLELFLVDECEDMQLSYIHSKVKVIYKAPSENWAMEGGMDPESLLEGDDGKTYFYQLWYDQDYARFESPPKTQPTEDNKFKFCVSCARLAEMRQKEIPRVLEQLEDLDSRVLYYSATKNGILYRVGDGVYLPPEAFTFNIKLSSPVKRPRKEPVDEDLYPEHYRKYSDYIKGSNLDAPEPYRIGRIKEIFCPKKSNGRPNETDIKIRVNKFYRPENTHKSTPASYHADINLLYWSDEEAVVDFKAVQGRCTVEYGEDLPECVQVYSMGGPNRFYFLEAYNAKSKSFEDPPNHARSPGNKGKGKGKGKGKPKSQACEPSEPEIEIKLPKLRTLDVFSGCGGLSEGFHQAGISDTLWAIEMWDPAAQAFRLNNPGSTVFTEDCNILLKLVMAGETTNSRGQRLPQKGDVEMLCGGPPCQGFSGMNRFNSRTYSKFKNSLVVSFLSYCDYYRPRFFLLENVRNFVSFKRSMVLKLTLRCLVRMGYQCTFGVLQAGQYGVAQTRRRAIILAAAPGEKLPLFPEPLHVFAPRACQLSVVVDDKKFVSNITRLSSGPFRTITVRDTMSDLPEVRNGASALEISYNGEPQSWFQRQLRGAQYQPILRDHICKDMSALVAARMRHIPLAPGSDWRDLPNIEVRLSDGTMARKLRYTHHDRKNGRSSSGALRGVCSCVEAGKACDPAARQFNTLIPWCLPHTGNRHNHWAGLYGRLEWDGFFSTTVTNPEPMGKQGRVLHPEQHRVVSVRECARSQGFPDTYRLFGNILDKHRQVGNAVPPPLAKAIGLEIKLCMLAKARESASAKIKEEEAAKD
UniProt Q96KQ7: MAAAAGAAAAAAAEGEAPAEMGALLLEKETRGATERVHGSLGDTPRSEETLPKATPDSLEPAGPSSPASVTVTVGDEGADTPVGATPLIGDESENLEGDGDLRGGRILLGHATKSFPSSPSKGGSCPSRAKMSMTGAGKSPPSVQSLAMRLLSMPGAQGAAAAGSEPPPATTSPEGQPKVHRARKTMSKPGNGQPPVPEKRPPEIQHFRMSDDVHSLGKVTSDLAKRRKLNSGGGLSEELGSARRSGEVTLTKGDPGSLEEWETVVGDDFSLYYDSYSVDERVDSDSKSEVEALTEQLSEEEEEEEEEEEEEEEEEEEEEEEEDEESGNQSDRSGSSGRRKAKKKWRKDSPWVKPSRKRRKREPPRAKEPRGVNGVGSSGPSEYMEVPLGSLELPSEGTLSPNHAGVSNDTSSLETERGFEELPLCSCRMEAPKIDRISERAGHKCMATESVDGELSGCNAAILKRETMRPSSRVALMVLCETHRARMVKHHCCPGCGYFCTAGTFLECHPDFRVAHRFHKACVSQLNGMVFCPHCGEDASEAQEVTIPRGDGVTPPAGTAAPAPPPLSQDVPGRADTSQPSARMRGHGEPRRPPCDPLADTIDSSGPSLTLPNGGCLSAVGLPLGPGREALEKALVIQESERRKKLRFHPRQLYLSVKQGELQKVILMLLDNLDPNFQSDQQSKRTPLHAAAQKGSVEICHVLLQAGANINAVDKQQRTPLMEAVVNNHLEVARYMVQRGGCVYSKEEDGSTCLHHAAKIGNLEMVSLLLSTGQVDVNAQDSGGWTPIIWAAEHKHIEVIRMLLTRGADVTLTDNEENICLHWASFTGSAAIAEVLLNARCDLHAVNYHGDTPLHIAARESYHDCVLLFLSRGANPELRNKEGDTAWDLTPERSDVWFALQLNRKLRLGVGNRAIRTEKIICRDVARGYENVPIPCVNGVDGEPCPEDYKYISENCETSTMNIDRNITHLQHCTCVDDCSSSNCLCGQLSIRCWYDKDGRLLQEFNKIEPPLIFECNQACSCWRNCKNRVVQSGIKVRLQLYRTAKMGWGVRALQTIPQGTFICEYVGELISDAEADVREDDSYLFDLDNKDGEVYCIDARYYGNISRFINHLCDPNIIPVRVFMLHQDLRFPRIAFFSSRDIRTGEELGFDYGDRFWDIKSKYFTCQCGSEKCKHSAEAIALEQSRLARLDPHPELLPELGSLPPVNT

These are yes or no findings as the source states them, for the method shown. In cells and extracts the contact can be indirect. Some results given as binding are weak or reduced against the parent protein; the word gives no strength.

The experiment deals with DNA methyltransferase-1 (DNMT1) (human (endogenous in human breast cancer cells)) (UniProt P26358). In words: co-IP; DNMT1 IP (mouse anti-DNMT1 Ab, control normal mouse IgG) from cell lysate, overnight at 4°C, protein A agarose beads, washes in 50 mM Tris-HCl pH 7.5, 150 mM NaCl, 1 mM MgCl2, 0.5% NP-40; immunoblotting; with or without DNase I or RNase A treatment. (A western blot detects proteins with antibodies after separation by electrophoresis.)

As for “G9a, histone H3K9 methyltransferase (from UniProt Q96KQ7 1-1210) (enzyme)”, the binding result was “binds”.
